# From PMC7819943, “Rice protein-binding microarrays: a tool to detect cis-acting elements near promoter regions in rice”
# Amino acid sequences for entries named in this document (tags omitted).
# UniProt Q0JBA9, entry or part of it: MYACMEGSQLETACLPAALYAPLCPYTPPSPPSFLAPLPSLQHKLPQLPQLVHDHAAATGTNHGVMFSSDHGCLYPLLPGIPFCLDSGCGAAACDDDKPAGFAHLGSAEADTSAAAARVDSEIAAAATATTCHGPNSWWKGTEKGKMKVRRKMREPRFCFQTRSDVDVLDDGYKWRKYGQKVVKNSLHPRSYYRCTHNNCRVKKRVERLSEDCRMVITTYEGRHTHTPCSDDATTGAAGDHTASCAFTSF
# The list shows a part of the results.
# Biological target: OsWRKY34 (Oryza sativa, UniProt Q0JBA9 1-250)
# Experiment: protein-binding microarray (RPBM); PBS, 2% BSA, 51.3 ng/ul salmon testes DNA, 50 uM zinc acetate, 200 nM TF, 25 C, 1 h; high values mean tight binding
# Settings: protein: recombinant; tags: N-terminal polyhistidine and DsRed monomer fusion (pET32a); label: CyDye5-dUTP incorporated in the synthesized complementary strand; 3' TTTTT single-stranded linker to array surface; dsDNA, one strand shown
# Procedure, shortened: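 The binding signal for each feature is its fluorescence intensity in arbitrary units. An Axon 4000B scanner was used to read a custom Agilent array that had been made double-stranded with Cy5-dUTP primer extension, blocked with 2% BSA, incubated at 25 °C for 1 h with 200 nM protein in PBS, 2% BSA, salmon testes DNA and 50 µM zinc acetate, and washed. The protein was an N-terminal polyhistidine–DsRed transcription factor fusion from E. coli BL21-CodonPlus, purified on Ni–NTA.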
row,Sequence,binding signal
1,GTAATCTTCATCTTAATTACACCTCGTCACCTCGTCTTAACGGAGTCACCTAGTGCAG,8340 fluorescence intensity (a.u.)
2,CCTCATCACCATACTCAACCCAGTCACCCGCACCGTTCTCCGGAGTCACCTAGTGCAG,13400 fluorescence intensity (a.u.)
3,ATGACCGTTTATTTTGTTGTAATCTCACGTATAGCTTGCTCGGAGTCACCTAGTGCAG,11200 fluorescence intensity (a.u.)
4,TGGTGGTGGTTGTGGTTGGGTTGGTGTCTGTCTTTTGTACCGGAGTCACCTAGTGCAG,16300 fluorescence intensity (a.u.)
5,GATCATCACACAAGAAACCACACCGCAAACCATGTCATCCCGGAGTCACCTAGTGCAG,8540 fluorescence intensity (a.u.)
6,CGTCTTTTCTCCTTGTCTTGCTAGCCATATCAACGGAAGGCGGAGTCACCTAGTGCAG,8080 fluorescence intensity (a.u.)
7,GATATAGCCGAAAGTATCCATCCTTTTTATAGCCTTTGTACGGAGTCACCTAGTGCAG,10600 fluorescence intensity (a.u.)
8,TGCCGGTGCTCCCAACTCTTTCCTCGCTCCCCACGCTAGCCGGAGTCACCTAGTGCAG,8230 fluorescence intensity (a.u.)
9,CCACTCAGCCTACCGCGTGTTCTGCTGCCCGACATGGCCACGGAGTCACCTAGTGCAG,8950 fluorescence intensity (a.u.)
10,GATCGCTCCGTTTTTCATGTGCACGAGATTTGTTCCCATCCGGAGTCACCTAGTGCAG,9190 fluorescence intensity (a.u.)
11,TAGTCCTCATCTTCTCGTGTATCTTTGGTTTTCTTCCCATCGGAGTCACCTAGTGCAG,8930 fluorescence intensity (a.u.)
12,CTAGAAGGTGACTTTTCCAACTCAACTCTCGTTTTTTCACCGGAGTCACCTAGTGCAG,11500 fluorescence intensity (a.u.)
13,GGCAACGAGGAGCCCGCGTCATATCGTCGCCATCTTGACGCGGAGTCACCTAGTGCAG,10900 fluorescence intensity (a.u.)
14,ACCCATCCATCCCGTGAGGCCGTGATCCAGCTCTTGTTTCCGGAGTCACCTAGTGCAG,11100 fluorescence intensity (a.u.)
15,ATTCATTACACCATGTTTCTTTCTTTCTTTCGAGGACCCTCGGAGTCACCTAGTGCAG,8370 fluorescence intensity (a.u.)
16,TCCCCGACCGAGCTAGCGTCCGCTTCACTCACCTCGTCGTCGGAGTCACCTAGTGCAG,9500 fluorescence intensity (a.u.)
17,GCCTTAGTAATTTTGGTAAACTAATTGTTGATGTCATGTTCGGAGTCACCTAGTGCAG,9320 fluorescence intensity (a.u.)
18,TTAATCTGTCATTAGCAAATATTTACTGTAGCATCATATTCGGAGTCACCTAGTGCAG,8270 fluorescence intensity (a.u.)
19,AATTCTCTCTCTCTACAGTCTAACACACATGCTGACAAAGCGGAGTCACCTAGTGCAG,8270 fluorescence intensity (a.u.)
20,AATCCTACATGCCAAATCACCTCATCTTATCTCATCTATTCGGAGTCACCTAGTGCAG,9800 fluorescence intensity (a.u.)
21,TACTGTTTTGCCTGGTAGATCCCTTTCGTTTGGCTGCAGACGGAGTCACCTAGTGCAG,10900 fluorescence intensity (a.u.)

row,Sequence,binding signal
1,GCGTCGGGACTCCATTTTTTTTTCCCCGTGAGAAATTTCCCGGAGTCACCTAGTGCAG,9300 fluorescence intensity (a.u.)
2,ATTGGCCGCTCCGCCCGTTCCCGCCACGCTCGCCGCGACGCGGAGTCACCTAGTGCAG,8220 fluorescence intensity (a.u.)
3,TAAGGGATCTCGCATGTCTGGTTTTGTGGTTCGAGGATGACGGAGTCACCTAGTGCAG,8710 fluorescence intensity (a.u.)
4,CTCCAGCTCTCGCCTCTCGCCTCGTCCTTGTTCGTCATCGCGGAGTCACCTAGTGCAG,8370 fluorescence intensity (a.u.)
5,TGTTGCTGCCTGGAGCTCAGGCGATCGATTTCGGTCGCCTCGGAGTCACCTAGTGCAG,8200 fluorescence intensity (a.u.)
6,ATCAACATCTTTTCGTTGCACCTTTCTTGACTCTTTATGCCGGAGTCACCTAGTGCAG,10900 fluorescence intensity (a.u.)
7,CCGTCATCATGCACCAGTTTCTTTGCTAAATGTTCTTTGCCGGAGTCACCTAGTGCAG,8330 fluorescence intensity (a.u.)
8,CTCACGTCACCTCCGCCGTCATCTGGTTCAAGCCCTATTTCGGAGTCACCTAGTGCAG,12600 fluorescence intensity (a.u.)
9,GACCTCCTTTTTCACGGGGCCGGGGACGGTGAGAAGCGTCCGGAGTCACCTAGTGCAG,8610 fluorescence intensity (a.u.)
10,TCCTGTTCGCTTTTCTGTTAGATCAAAAGCGATGTTTCTTCGGAGTCACCTAGTGCAG,8500 fluorescence intensity (a.u.)
11,CAGGCTGCCCAGCTCTGACATGTCGTCCTCACTTGCCGCCCGGAGTCACCTAGTGCAG,10100 fluorescence intensity (a.u.)
12,AACCCTCACTCTCAGCATTGTTAAGCTCAGGATTTGGCCACGGAGTCACCTAGTGCAG,10100 fluorescence intensity (a.u.)
13,TCGACTGCTGACCTGATTTTTCTCACAAGATTGTTTCGACCGGAGTCACCTAGTGCAG,9430 fluorescence intensity (a.u.)
14,AAATCATCCACTCTCATATTATCTAATTCTATTGGATGCACGGAGTCACCTAGTGCAG,8680 fluorescence intensity (a.u.)
15,ATTTTGTGTTTTTGTGGTGGTAATATTGTTTTTGAGTTCTCGGAGTCACCTAGTGCAG,9700 fluorescence intensity (a.u.)
16,TTAACACGGACACGCCACACTCTGACCACAGCTCACATTCCGGAGTCACCTAGTGCAG,9190 fluorescence intensity (a.u.)
17,GCGGTGGCGGTTGGGGTGGCGAGTGGGGAGGAGGAGGCGGCGGAGTCACCTAGTGCAG,18900 fluorescence intensity (a.u.)
18,AGGAGGGCGGGGTCGTCGTCGTCCGGGGTGGTGGTGGCCGCGGAGTCACCTAGTGCAG,17000 fluorescence intensity (a.u.)
19,CGCGCCGACCAGCCGCCATCATTCCGTGTCGCCCTGCACGCGGAGTCACCTAGTGCAG,8260 fluorescence intensity (a.u.)
20,CCTCACCCACCCATCACACACGCAAAACCACCGTCGTATCCGGAGTCACCTAGTGCAG,8290 fluorescence intensity (a.u.)
21,CTCTGCCGCGATCTCTCTCTCTCTCTCTCTCCTCCCATCCCGGAGTCACCTAGTGCAG,10400 fluorescence intensity (a.u.)

# An excerpt of these results, with bars between the fields.
row | Sequence | binding signal
5 | TGTTGCTGCCTGGAGCTCAGGCGATCGATTTCGGTCGCCTCGGAGTCACCTAGTGCAG | 8200 fluorescence intensity (a.u.)
8 | CTCACGTCACCTCCGCCGTCATCTGGTTCAAGCCCTATTTCGGAGTCACCTAGTGCAG | 12600 fluorescence intensity (a.u.)
11 | CAGGCTGCCCAGCTCTGACATGTCGTCCTCACTTGCCGCCCGGAGTCACCTAGTGCAG | 10100 fluorescence intensity (a.u.)
